Measurements as given in article PMC9495943, “Recombinant Expression of Archaeal Superoxide Dismutases in Plant Cell Cultures: A Sustainable Solution with Potential Application in the Food Industry” (Antioxidants, 2022).
Results are given in words; binding and its absence hold for the method and conditions named. Some binding calls cover weakened binding; strength is not graded here.

Molecular target: Superoxide dismutase (Mn/Fe-dependent SOD) from Aeropyrum pernix K1 (Aeropyrum pernix K1) (UniProt Q9Y8H8)
Experiment: SEC; data not shown; partially purified SODAp, gel filtration on Superdex 200 as for SODSs; both purified

B1: Superoxide dismutase (Mn/Fe-dependent SOD) from Aeropyrum pernix K1 (enzyme, UniProt Q9Y8H8 1-214)
chain: MVSFKRYELPPLPYNYNALEPYIIEEIMKLHHQKHHNTYVKGANAALEKIEKHLKGEIQIDVRAVMRDFSFNYAGHIMHTIFWPNMAPPGKGGGTPGGRVADLIEKQFGGFEKFKALFSAAAKTVEGVGWGVLAFDPLTEELRILQVEKHNVLMTAGLVPILVIDVWEHAYYLQYKNDRGSYVENWWNVVNWDDVEKRLEQALNNAKPLYLLPQ
How did the binding turn out when B1 was run?
The binding was “binds”.
